# Source: patent US11065343B2 (IntoCell Inc., priority 2016, dated 2021)
# Assay: general procedure: peptide synthesis; HOBt/pyridine/DIPEA (carbonate coupling to MMAF); CuSO4/sodium ascorbate (click)
# Conditions: late stage modification step
substance,measurement,value
BGal-SIG-Toxin compound S-9,step yield,89%
